Laboratory results reported in US10052340B2 (XIAMEN UNIVERSITY, priority 2012, dated 2018).

Tested on: KK-Ay mice
Test: Mouse trial, KK-Ay diabetes and obesity model mice fed with high-fat diet
Type: in vivo
Details: i.p. daily 14 days, ivermectin/derivatives 1.3 mg/kg, GW4064 30 mg/kg
From the text: In order to detect the efficacy of abamectin/avermectin, ivermectin and the derivative doramectin in the body of a diabetes and obesity mouse model, we choose diabetes and obesity mouse model mice, KK-Ay mice, as the experimental subject.

| Structure (SMILES) | food intake |
| --- | --- |
| CO[C@H]1C[C@H](O[C@H]2[C@H](C)O[C@@H](O[C@@H]3/C(C)=C/C[C@@H]4C[C@@H](C[C@]5(C=C[C@H](C)[C@@H](C6CCCCC6)O5)O4)OC(=O)[C@@H]4C=C(C)[C@@H](O)[C@H]5OC/C(=C\C=C\[C@@H]3C)[C@]54O)C[C@@H]2OC)O[C@@H](C)[C@@H]1O [doramectin] | not affected |
| CC(C)c1onc(-c2c(Cl)cccc2Cl)c1COc1ccc(/C=C/c2cccc(C(=O)O)c2)c(Cl)c1 [GW4064] | not affected |
| CC[C@H](C)[C@H]1O[C@]2(CC[C@@H]1C)C[C@@H]1C[C@@H](C/C=C(\C)C(O[C@H]3C[C@H](OC)C(O[C@H]4C[C@H](OC)[C@@H](O)[C@H](C)O4)[C@H](C)O3)[C@@H](C)/C=C/C=C3\CO[C@@H]4[C@H](O)C(C)=CC(C(=O)O1)[C@]34O)O2 (stereo partly shown) [ivermectin] | not affected |
| CCC(C)[C@H]1O[C@]2(C=C[C@@H]1C)C[C@@H]1C[C@@H](C/C=C(\C)[C@@H](O[C@H]3C[C@H](OC)[C@@H](O[C@H]4C[C@@H](OC)[C@H](O)[C@@H](C)O4)[C@H](C)O3)[C@@H](C)/C=C/C=C3\CO[C@@H]4[C@H](O)C(C)=C[C@@H](C(=O)O1)[C@]34O)O2 (stereo partly shown) [abamectin/avermectin] | not affected |
